Some results were stated once for a whole list of compounds, not compound by compound. At least one structure is not confirmed: it was looked up by name or label, or the drawing left a doubt.
Assay: UV-Visible absorption spectra
Format: physicochemical
Settings: red shift for 4a; blue shift for 4b and 4c
Description: NMR spectra were recorded using a Varian VXR-300 FT-NMR, operating at 300 MHz for ^1H NMR and at 75.4 MHz for ^13C NMR. UV-Visible spectra were recorded using a Varian Cary 100 dual beam spectrophotometer. Corrected steady-state fluorescence spectra were obtained with a PTI spectrometer. A 1 cm square quartz cuvette was used for solution spectra, and emission was collected at 90° relative to excitation beam. Fluorescence quantum yields are reported relative to known standards. The optical density of solutions at the excitation wavelength was ≦0.1, and corrections were applied for differences in the refractive index of standard and sample solutions. Transient absorption spectra were collected using a laser systems that is described elsewhere.^17,18 The optical density of the solutions was adjusted to ˜0.7 at the excitation wavelength (355 nm) with the laser energy set at 6-7 mJ. Solutions were purged with argon for 45 min before making transient absorption spectroscopy measurements. Singlet oxygen quantum yields were measured using a Photon Technology International Quantamaster near-IR spectrophotometer equipped with an InGaAs photodiode detector, optical chopper and a lock in amplifier.

Which “shift of absorption in water compared to methanol” value does the source give for `Cn1nc2c(-c3ccc(CCC[N+](C)(C)C)s3)ccc(-c3ccc(CCC[N+](C)(C)C)s3)c2n1.[Cl-].[Cl-]` [4b] here?
Its value is 3-5 nm.

For `C[N+](C)(C)CCCc1ccc(-c2ccc(-c3ccc(CCC[N+](C)(C)C)s3)c3nsnc23)s1.[Cl-].[Cl-]` [4c], which “shift of absorption in water compared to methanol” value is on record?
Its value is 3-5 nm.
